Measurements reported in PubChem BioAssay AID1259308 (NCATS, 2017).
Test: 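Candidate targets for better recombinant protein yield in mammalian cells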 (primary screen). System: human HEK293 embryonic kidney cells stably expressing firefly luciferase (HEK-CMV-Luc2-Hygro). Reagents: single siRNA against human genes, 0.8 pmol siRNA per well. Duration: 72 h. Measurement: 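Luciferase light (ONE-Glo) measured on one replicate plate set and viability (CellTiter-Glo) on the other, scaled to a negative control siRNA, with robust z-scores and luciferase per cell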. Scale: total luciferase, z-score and total luciferase, % of control: higher = more reporter protein produced. Call rule: 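Active when the median/MAD z-score for overall luciferase is greater than 3; a gene was taken forward for validation with new siRNAs if at least two of its three siRNAs passed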. Meaning of the calls: active = raised luciferase; inactive = no rise.
The deposit covers about 59,000 reagents; below is an unselected part. About 1,510 of all reagents (2.6%) were called active. 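Calls use total luciferase alone and ignore viability, so some active siRNAs may act by altering cell number.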 Unmarked entries are inactive. The numbers tell different reagents against one gene apart. Further read-outs or replicates are left out here.

no.	target	reagent no.	total luciferase, z-score	total luciferase, % of control
1	B3GALNT1	1	-0.0407	81.1
2	B3GALNT1	2	-1.33	55.5
3	B3GALNT1	3	-1.75	47.1
4	ETS2-AS1	1	0.679	95.4
5	ETS2-AS1	2	-2.48	32.6
6	ETS2-AS1	3	-1.05	61.1
7	YIPF4	1	-1.58	50.5
8	YIPF4	2	0.109	84.1
9	YIPF4	3	-0.923	63.5
10	HJV	1	1.97	121
11	HJV	2	1.84	118
12	HJV	3	0.173	85.3
13	TTC9C	1	0.249	86.8
14	TTC9C	2	0.457	91
15	TTC9C	3	-0.297	76
16	SEC13	1	1.17	105
17	SEC13	2	-1.3	56
18	SEC13	3	-0.214	77.6
19	GNB3	1	1.16	105
20	GNB3	2	-0.294	76
21	GNB3	3	-1.03	61.3
22	KLK12	1	5.76 (active)	196
23	KLK12	2	0.126	84.4
24	KLK12	3	0.687	95.5
25	ZNF790	1	-1.45	53.1
26	ZNF790	2	-0.667	68.6
27	ZNF790	3	-0.839	65.2
28	SAGE1	1	-0.257	76.8
29	SAGE1	2	0.152	84.9
30	SAGE1	3	0.348	88.8
31	HCRTR1	1	1.01	102
32	HCRTR1	2	0.238	86.6
33	HCRTR1	3	-0.967	62.7
34	AMBRA1	1	-1.4	54
35	AMBRA1	2	-1.19	58.3
36	AMBRA1	3	-0.429	73.4

No new results follow: an excerpt of the list.
no.	target	reagent no.	total luciferase, z-score	total luciferase, % of control
15	TTC9C	3	-0.297	76
16	SEC13	1	1.17	105
17	SEC13	2	-1.3	56
18	SEC13	3	-0.214	77.6

Further results follow.
no.	target	reagent no.	total luciferase, z-score	total luciferase, % of control
37	LTC4S	1	1.64	115
38	LTC4S	2	0.126	84.4
39	LTC4S	3	-0.511	71.7
40	RHPN1	1	-0.446	73
41	RHPN1	2	-0.585	70.2
42	RHPN1	3	-0.794	66.1
43	FHDC1-AS1	1	0.471	91.3
44	FHDC1-AS1	2	-0.716	67.6
45	FHDC1-AS1	3	-0.692	68.1
46	CTAGE1	1	4.99 (active)	181
47	CTAGE1	2	-0.155	78.8
48	CTAGE1	3	-0.972	62.6
49	TF	1	-0.565	70.7
50	TF	2	1.12	104
51	TF	3	-0.478	72.4
52	ADI1	1	-0.351	74.9
53	ADI1	2	3.84 (active)	158
54	ADI1	3	-0.376	74.4
55	KIF7	1	-0.23	77.3
56	KIF7	2	-2.42	33.8
57	KIF7	3	2.12	124
58	HMOX2	1	0.983	101
59	HMOX2	2	-0.721	67.5
60	HMOX2	3	0.493	91.7
61	TTLL2	1	-0.57	70.6
62	TTLL2	2	1.69	116
63	TTLL2	3	-0.129	79.3
64	SIK3	1	2.16	125
65	SIK3	2	1.5	112
66	SIK3	3	3.25 (active)	147
67	CNTF	1	3.37 (active)	149
68	CNTF	2	1.44	110
69	CNTF	3	3.34 (active)	148
70	NKX6-2	1	1.07	103
71	NKX6-2	2	4.08 (active)	163
72	NKX6-2	3	1.49	112
73	PLAGL1	1	1.01	102
74	PLAGL1	2	3.12 (active)	144
75	PLAGL1	3	0.0336	82.6
